Reference: the supplement of paper PMC12823440, “Inhibitors supercharge kinase turnover through native proteolytic circuits” (Nature, 2025)
Where a name gives a salt, the structure may show the parent alone. The list shows a part of the results. Hit calls seldom repeat between salt and free forms of one compound.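 Kinases were expressed as nanoluciferase fusions in K562 cells and luminescence was read every 4 h between 2 and 18 h as percent of control, DMSO set to 100% and a positive control to 0%. A time point counts as decreased when the signal drops significantly (2 sigma). The hit call is the authors' own, does not follow from the count of time points alone, and its rule is not shown.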

By UniProt entry, the sequences of proteins in these tests, tags left out. Where a name states a change or a piece, a line headed by the entry shows the natural chain unless it says otherwise.
UniProt Q05397, whole entry, looked up: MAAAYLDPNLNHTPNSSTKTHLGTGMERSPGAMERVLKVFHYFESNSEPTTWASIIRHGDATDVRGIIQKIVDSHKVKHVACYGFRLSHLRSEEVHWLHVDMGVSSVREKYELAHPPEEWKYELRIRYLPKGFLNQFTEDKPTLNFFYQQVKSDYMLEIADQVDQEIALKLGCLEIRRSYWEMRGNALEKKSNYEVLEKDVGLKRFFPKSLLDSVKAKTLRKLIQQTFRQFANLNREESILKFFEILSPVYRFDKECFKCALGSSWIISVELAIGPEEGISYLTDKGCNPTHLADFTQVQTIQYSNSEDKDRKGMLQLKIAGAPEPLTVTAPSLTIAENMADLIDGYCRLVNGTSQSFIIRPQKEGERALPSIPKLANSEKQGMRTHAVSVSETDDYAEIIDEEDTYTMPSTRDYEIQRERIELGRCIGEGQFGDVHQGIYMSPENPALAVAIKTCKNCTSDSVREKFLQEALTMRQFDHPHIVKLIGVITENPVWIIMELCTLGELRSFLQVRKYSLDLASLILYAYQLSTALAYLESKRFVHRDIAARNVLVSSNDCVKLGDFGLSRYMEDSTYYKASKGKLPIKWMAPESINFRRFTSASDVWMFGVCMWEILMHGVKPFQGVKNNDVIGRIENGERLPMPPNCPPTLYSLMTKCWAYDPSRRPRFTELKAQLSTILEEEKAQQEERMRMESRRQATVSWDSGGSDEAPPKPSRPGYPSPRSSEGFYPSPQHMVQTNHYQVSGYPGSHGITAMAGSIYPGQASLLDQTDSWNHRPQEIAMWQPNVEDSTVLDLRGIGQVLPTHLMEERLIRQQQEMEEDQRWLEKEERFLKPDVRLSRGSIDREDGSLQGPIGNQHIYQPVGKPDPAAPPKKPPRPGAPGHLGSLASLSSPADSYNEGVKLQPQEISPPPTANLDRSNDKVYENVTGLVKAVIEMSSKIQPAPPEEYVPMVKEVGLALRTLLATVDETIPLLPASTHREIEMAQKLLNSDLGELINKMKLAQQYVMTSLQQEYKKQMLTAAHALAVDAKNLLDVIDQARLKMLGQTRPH
UniProt Q14289, whole entry, looked up: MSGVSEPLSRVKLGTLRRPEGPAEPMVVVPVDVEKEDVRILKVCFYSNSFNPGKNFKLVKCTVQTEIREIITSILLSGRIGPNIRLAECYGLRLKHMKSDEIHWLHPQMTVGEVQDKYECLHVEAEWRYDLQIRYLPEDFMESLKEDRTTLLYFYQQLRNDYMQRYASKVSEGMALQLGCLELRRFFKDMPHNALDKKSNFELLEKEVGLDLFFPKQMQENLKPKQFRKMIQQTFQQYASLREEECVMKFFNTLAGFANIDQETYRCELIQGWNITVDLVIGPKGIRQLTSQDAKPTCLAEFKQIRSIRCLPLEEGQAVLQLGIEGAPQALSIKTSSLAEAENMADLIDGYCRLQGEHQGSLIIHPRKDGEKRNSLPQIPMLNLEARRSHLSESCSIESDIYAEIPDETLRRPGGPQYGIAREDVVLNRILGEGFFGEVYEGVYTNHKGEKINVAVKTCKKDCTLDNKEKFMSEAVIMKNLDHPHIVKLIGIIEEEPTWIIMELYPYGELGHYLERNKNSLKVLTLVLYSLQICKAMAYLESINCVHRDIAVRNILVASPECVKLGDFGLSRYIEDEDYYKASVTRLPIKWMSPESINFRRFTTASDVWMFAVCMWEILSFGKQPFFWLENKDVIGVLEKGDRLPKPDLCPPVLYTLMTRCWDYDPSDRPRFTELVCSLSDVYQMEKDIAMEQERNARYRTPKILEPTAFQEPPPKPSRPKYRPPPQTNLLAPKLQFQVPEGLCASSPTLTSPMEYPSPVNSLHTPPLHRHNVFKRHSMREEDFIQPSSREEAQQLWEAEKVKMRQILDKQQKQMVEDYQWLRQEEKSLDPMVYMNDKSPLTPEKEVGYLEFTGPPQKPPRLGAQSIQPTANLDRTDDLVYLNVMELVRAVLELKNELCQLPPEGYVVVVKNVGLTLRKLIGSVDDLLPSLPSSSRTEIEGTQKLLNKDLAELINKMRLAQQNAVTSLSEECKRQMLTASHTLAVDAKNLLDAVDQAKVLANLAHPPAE
UniProt Q9BRS2: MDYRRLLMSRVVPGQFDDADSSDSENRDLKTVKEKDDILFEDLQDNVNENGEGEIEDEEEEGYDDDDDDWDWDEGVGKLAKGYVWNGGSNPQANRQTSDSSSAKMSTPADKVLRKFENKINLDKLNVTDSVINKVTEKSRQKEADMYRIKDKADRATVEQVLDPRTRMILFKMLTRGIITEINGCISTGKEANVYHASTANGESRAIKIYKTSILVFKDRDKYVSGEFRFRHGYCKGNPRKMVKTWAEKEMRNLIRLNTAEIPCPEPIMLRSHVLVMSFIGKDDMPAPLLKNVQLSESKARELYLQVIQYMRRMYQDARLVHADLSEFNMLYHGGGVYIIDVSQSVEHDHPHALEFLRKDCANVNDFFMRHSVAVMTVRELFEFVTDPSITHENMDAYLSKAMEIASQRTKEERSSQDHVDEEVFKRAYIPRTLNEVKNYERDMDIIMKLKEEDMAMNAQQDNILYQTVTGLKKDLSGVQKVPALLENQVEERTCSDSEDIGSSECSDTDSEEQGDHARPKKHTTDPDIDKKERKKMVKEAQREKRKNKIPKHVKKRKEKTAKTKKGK
UniProt Q13546: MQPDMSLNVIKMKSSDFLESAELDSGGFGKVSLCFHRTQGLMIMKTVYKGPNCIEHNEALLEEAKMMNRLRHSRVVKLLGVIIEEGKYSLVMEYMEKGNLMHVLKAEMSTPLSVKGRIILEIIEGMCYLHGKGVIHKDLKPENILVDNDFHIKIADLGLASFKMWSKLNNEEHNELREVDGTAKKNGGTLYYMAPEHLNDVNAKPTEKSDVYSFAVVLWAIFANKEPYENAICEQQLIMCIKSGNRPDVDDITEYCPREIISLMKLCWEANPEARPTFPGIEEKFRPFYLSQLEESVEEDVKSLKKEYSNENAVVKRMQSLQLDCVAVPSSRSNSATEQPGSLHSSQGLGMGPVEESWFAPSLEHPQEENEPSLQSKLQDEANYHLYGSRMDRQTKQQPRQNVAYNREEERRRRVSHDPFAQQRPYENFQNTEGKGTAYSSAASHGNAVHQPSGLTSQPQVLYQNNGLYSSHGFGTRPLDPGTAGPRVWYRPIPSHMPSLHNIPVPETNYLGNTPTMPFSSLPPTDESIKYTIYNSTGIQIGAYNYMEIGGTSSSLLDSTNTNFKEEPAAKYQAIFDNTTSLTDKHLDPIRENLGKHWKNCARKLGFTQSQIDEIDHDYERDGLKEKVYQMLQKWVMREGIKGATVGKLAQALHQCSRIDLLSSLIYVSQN
UniProt Q15418, whole entry: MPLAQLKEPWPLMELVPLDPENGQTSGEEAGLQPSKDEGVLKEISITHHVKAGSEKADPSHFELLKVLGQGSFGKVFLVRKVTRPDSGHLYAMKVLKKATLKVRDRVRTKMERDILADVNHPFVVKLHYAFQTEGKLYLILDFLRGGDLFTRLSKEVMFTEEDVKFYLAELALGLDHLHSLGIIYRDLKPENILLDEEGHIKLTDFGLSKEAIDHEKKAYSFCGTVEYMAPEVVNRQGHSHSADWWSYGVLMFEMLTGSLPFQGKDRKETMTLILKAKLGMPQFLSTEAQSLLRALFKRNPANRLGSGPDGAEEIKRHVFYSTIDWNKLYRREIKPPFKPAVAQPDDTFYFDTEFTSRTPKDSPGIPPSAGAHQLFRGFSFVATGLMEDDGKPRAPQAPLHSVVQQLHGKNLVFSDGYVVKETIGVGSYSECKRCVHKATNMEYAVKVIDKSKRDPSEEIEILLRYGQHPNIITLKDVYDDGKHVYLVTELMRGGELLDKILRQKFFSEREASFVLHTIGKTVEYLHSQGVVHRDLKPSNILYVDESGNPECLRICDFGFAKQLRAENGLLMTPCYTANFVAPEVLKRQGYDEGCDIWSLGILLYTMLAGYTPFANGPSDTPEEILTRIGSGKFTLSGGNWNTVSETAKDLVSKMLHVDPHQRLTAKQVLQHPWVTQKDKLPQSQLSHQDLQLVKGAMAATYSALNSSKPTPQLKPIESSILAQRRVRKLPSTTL
UniProt Q9NYA1, whole entry: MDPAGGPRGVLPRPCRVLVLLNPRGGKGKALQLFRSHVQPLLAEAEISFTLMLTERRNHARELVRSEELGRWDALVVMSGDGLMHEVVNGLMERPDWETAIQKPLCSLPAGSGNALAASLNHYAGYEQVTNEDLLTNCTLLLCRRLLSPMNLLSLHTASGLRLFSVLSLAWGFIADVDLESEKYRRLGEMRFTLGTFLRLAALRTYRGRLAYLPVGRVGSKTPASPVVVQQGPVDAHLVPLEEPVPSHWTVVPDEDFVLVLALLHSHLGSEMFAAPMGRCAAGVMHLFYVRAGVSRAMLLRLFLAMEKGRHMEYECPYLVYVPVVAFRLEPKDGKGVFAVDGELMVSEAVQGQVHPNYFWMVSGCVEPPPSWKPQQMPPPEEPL
UniProt P42680: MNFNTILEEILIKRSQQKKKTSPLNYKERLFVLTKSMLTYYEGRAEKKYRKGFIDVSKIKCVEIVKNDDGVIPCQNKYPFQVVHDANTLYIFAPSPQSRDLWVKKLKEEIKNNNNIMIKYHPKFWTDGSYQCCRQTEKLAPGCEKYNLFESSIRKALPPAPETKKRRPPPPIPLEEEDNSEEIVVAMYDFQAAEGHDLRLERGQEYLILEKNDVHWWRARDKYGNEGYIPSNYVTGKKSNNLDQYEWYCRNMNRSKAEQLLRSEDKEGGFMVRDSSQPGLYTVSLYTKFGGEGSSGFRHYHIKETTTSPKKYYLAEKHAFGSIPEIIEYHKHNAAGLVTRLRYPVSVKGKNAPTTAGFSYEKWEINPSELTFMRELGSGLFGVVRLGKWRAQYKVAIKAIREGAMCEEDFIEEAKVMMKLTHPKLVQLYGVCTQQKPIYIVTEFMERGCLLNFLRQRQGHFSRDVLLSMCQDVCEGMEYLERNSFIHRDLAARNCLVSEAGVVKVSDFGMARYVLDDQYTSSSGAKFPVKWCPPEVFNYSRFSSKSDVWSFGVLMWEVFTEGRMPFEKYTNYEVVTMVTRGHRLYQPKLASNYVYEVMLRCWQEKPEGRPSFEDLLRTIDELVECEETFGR
UniProt Q6PHR2: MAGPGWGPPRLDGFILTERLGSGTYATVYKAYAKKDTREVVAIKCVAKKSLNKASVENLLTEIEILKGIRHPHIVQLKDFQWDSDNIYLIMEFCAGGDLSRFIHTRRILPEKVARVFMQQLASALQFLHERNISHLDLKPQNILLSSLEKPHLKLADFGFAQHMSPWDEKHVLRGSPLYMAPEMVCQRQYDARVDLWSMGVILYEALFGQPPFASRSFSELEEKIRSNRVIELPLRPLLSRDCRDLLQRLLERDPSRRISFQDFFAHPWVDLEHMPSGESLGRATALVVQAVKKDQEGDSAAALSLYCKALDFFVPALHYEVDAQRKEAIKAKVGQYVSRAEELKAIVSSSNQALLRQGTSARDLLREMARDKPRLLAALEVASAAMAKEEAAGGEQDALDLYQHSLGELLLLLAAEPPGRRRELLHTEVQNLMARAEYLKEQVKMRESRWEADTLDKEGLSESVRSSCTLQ

Experiments:
Test in all cases: number of time points (of 5) at which kinase-Nluc abundance scored as decreased, DMSO-normalised (count); higher = more persistent destabilization
Conditions in all cases: K562; 2-18 h
PRKCA = PRKCA (UniProt P17252)
PTK2 = PTK2 (UniProt Q05397)
PTK2B = PTK2B (UniProt Q14289)
RAF1 = RAF1 (UniProt P04049)
[1] = target: RAF1_S257L (clone: RAF1_mut) (UniProt P04049)
RET = RET (UniProt P07949)
[2] = target: RET_M918T (clone: RET_mut) (UniProt P07949)
RIOK1 = RIOK1 (UniProt Q9BRS2)
RIPK1 = RIPK1 (UniProt Q13546)
RIPK2 = RIPK2 (UniProt O43353)
ROR2 = ROR2 (UniProt Q01974)
RPS6KA1 = RPS6KA1 (UniProt Q15418)
SPHK1 = SPHK1 (UniProt Q9NYA1)
SRC = SRC (UniProt P12931)
STK24 = STK24 (UniProt Q9Y6E0)
STK38 = STK38 (UniProt Q15208)
SYK = SYK (UniProt P43405)
TEC = TEC (UniProt P42680)
TYK2 = TYK2 (UniProt P29597)
ULK3 = ULK3 (UniProt Q6PHR2)

Measured: number of time points

N#CC(=Cc1ccc(O)c(O)c1)C(=O)NCc1ccccc1 (mixture of isomers) (10 µM)
0: all assays above

COc1ccc(Oc2cc(NCCC(F)(F)F)c3ncc(-c4ccc(C(=O)NC5CC5)c(C)c4)n3n2)c(F)c1F (2.5 µM)
0: all assays above

C=CC(=O)N1CCC[C@@H](n2nc(-c3ccc(Oc4ccccc4)cc3)c(C(N)=O)c2N)C1 [Btk inhibitor 2] (10 µM)
0: all assays above

COc1cc2ncnc(Nc3ccc(O)cc3)c2cc1OC (10 µM)
0: all assays above

O=c1oc2c(C3OCCCO3)c(O)ccc2c2c1CNCC2 (10 µM)
0: all assays above

O=c1c(O)c(-c2ccc(O)c(O)c2)oc2cc(O)cc(O)c12 [Quercetin (dihydrate)] (10 µM)
0: all assays above

O=C(c1ccc(-c2ccc(Cl)cc2)o1)N(Cc1ccccn1)c1ccc(N2CCNCC2)cc1 [MK2-IN-1 (hydrochloride)] (10 µM)
1: PTK2 | RIOK1 | RIPK1 | ULK3
0: all other assays above

O=C1Nc2ccccc2/C1=C/c1ccc(F)cc1 (10 µM)
0: all assays above

CCCCNc1ncc(-c2ccc(CN3CCOCC3)cn2)c(NC2CCC(O)CC2)n1 (centres undefined) (10 µM)
0: all assays above

Cc1nc(-c2cnc(NC(C)C)n(C)c2=O)ccc1Oc1ccnc(-c2cnn(C)c2)c1 (2.5 µM)
2: [1]
0: all other assays above

CC[C@H](CO)Nc1nc(NCc2ccccc2)c2ncn(C(C)C)c2n1 [Seliciclib] (10 µM)
0: all assays above

CCN(CC)CCCCNc1ncc2cc(-c3c(Cl)cccc3Cl)c(NC(=O)NC(C)(C)C)nc2n1 (2.5 µM)
4: TYK2
2: PTK2 | RAF1
1: RET | [2] | STK38
0: all other assays above

COc1cc(CCc2cc(-c3nc4ccc(N5CCN(C)CC5)cc4[nH]3)n[nH]2)cc(OC)c1 (10 µM)
2: RIOK1
3: RAF1 | TYK2
4: [1] | ULK3
1: RIPK2 | TEC
0: all other assays above

CC(C)n1cnc2c(NCc3cccc(C(F)(F)F)c3)ncnc21 [Longdaysin] (10 µM)
0: all assays above

CC#CC(=O)N[C@H]1CCCN(c2c(F)cc(C(N)=O)c3[nH]c(C)c(C)c23)C1 [Branebrutinib] (10 µM)
0: all assays above

Cc1nc(N)sc1-c1ccnc(Nc2ccc(N3CCOCC3)cc2)n1 (10 µM)
4: TYK2
1: PTK2 | RAF1 | RIPK1 | RIPK2
0: all other assays above

CC(C)C(=O)Nc1ncc(-c2cc(C(F)F)nn2-c2c(Cl)cccc2Cl)s1 (10 µM)
1: SRC
5: PTK2 | SPHK1 | TYK2
0: all other assays above

COc1cc(C)c(Sc2cnc(NC(=O)c3ccc(CNC(C)C(C)(C)C)cc3)s2)cc1C(=O)N1CCN(C(C)=O)CC1 (centres undefined) (2.5 µM)
0: all assays above

COc1cc(OC)cc(-c2cc3cnc(N)nc3nc2NC(=O)NC(C)(C)C)c1 (10 µM)
0: all assays above

NC(=O)c1ccc2nc(-c3ccc(Oc4ccc(Cl)cc4)cc3)[nH]c2c1 (10 µM)
0: all assays above

CNC(=O)c1cccc2cc(Oc3ccnc4cc(OCC5(N)CC5)c(OC)cc34)ccc12 [Lucitanib] (10 µM)
0: all assays above

CCN1CCN(Cc2ccc(C(=O)Nc3ccc(C)c(Oc4ccc5c(c4)CC(=O)N5)c3)cc2C(F)(F)F)CC1 (2.5 µM)
4: [1]
3: RIPK1 | RIPK2 | TYK2 | ULK3
1: SPHK1 | STK38 | TEC
2: PTK2 | PTK2B | RAF1 | RET | RIOK1
0: all other assays above

C[C@]1(O)C[C@@H](c2nc(-c3ccc4ccc(-c5ccccc5)nc4c3)c3c(N)nccn32)C1 [Linsitinib] (2.5 µM)
not listed: SYK
0: all other assays above
